Data from PMC1287507.
These are yes or no findings as the source states them, for the method shown. Binding seen in cells or lysates may run through a third protein.

Chains of the proteins cited; added tags and fusions are not shown.
UniProt O55143: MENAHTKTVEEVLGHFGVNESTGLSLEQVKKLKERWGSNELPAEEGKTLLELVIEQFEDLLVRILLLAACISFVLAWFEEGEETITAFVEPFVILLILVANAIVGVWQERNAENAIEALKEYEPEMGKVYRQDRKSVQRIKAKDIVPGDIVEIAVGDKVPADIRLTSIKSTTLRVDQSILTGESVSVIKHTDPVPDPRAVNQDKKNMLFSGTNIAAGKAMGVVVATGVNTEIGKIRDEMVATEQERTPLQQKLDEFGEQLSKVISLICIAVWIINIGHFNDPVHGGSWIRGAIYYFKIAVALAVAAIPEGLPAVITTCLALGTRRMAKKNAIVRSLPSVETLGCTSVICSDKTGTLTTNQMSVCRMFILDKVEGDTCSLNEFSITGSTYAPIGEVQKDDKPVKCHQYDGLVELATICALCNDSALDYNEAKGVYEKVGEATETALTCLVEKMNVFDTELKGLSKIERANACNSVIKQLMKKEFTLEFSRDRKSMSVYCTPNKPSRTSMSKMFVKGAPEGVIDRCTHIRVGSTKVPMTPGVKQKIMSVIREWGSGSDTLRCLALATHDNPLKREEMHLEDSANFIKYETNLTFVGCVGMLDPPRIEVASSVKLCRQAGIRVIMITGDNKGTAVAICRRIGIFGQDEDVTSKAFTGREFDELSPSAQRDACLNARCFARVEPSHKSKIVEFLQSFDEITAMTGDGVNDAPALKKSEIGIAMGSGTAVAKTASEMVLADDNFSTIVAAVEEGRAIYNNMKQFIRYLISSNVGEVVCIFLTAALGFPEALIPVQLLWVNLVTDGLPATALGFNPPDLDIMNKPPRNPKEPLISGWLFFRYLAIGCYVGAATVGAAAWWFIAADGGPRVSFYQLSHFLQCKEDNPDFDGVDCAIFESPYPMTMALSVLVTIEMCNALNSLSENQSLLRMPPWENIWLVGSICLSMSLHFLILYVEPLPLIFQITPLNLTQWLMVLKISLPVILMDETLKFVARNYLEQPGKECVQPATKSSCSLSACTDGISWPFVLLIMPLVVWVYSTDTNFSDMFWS

Key:
Test in all cases: co-IP; detergent-soluble extracts (1.5% Triton X-100, 0.75% deoxycholate; 100,000g supernatant) of adult mouse heart; immunoprecipitation with antibody to each protein, immunoblot of associated proteins
[1] = biological target: SR Ca^2+ ATPase (SERCA2) (endogenous, mouse heart) (mouse (endogenous in mouse heart)) (UniProt O55143)
[2] = biological target: Na/K ATPase alpha 2 isoform (endogenous, mouse heart) (mouse (endogenous in mouse heart)) (UniProt Q6PIE5)
[3] = biological target: Na/Ca exchanger 1 (endogenous, mouse) (mouse (endogenous in mouse heart and brain)) (UniProt P70414)

Substance	binding [1]	binding [2]	binding [3]
Na/Ca exchanger 1 (endogenous, mouse) (from UniProt P70414 33-970)	no binding		
Na/K ATPase alpha 2 isoform (endogenous, mouse heart) (from UniProt Q6PIE5 1-1020)	no binding		
SR Ca^2+ ATPase (SERCA2) (endogenous, mouse heart) (from UniProt O55143 1-1044)		no binding	no binding
